# In PubChem BioAssay AID188 (DTP/NCI, 2004):
# Values are animals surviving of animals treated; these mice carried no tumour. Survivors were counted at the toxicity check, usually on the fifth day, unless a day is given; later deaths do not show. Schedule codes are those of the source, taken here to give the interval after Q, in days (D) or hours (H), and the number of doses after X. Some entries hold several experiments; the values are given in rising order.
# Test system: CD2F1 mice, nontumored, toxicity/survival
# Test: NCI In Vivo Anticancer Drug Screen. Data for tumor model Nontumored Animals (Toxicity Test) in CD2F1 (CDF1) mice
structure (smiles),measurement,setting,value
COc1cc([C@@H]2c3cc4c(cc3[C@@H](OC3OC5COC(C)OC5C(O)C3O)[C@H]3COC(=O)[C@H]23)OCO4)cc(OC)c1O (stereo partly specified),survivor count,"dose: 1.0 mg/kg/injection, schedule: Q03HX008 (ip), vehicle: other",8 of 8
same,survivor count,"dose: 1.0 mg/kg/injection, schedule: Q03HX016 (ip), vehicle: other",8 of 8
same,survivor count,"dose: 1.0 mg/kg/injection, schedule: Q03HX024 (ip), vehicle: other",7 of 8
same,survivor count,"dose: 2.0 mg/kg/injection, schedule: Q01DX009 (ip), vehicle: other",8 of 8
same,survivor count,"dose: 2.0 mg/kg/injection, schedule: Q01DX009 (sc), vehicle: other",8 of 8
same,survivor count,"dose: 2.0 mg/kg/injection, schedule: Q03HX008 (ip), vehicle: other",7 of 8
same,survivor count,"dose: 2.0 mg/kg/injection, schedule: Q03HX016 (ip), vehicle: other",8 of 8
same,survivor count,"dose: 2.0 mg/kg/injection, schedule: Q03HX024 (ip), vehicle: other",8 of 8
same,survivor count,"dose: 4.0 mg/kg/injection, schedule: Q01DX009 (ip), vehicle: other",8 of 8
same,survivor count,"dose: 4.0 mg/kg/injection, schedule: Q01DX009 (oral), vehicle: Klucel (hydroxypropylcellulose) (HPC)",8 of 8
same,survivor count,"dose: 4.0 mg/kg/injection, schedule: Q01DX009 (sc), vehicle: other",8 of 8
same,survivor count,"dose: 4.0 mg/kg/injection, schedule: Q03HX008 (ip), vehicle: other",8 of 8
same,survivor count,"dose: 4.0 mg/kg/injection, schedule: Q03HX008 (oral), vehicle: Klucel (hydroxypropylcellulose) (HPC)",8 of 8
same,survivor count,"dose: 4.0 mg/kg/injection, schedule: Q03HX016 (ip), vehicle: other",8 of 8
same,survivor count,"dose: 4.0 mg/kg/injection, schedule: Q03HX016 (oral), vehicle: Klucel (hydroxypropylcellulose) (HPC)",8 of 8
same,survivor count,"dose: 4.0 mg/kg/injection, schedule: Q03HX024 (ip), vehicle: other",8 of 8
same,survivor count,"dose: 4.0 mg/kg/injection, schedule: Q03HX024 (oral), vehicle: Klucel (hydroxypropylcellulose) (HPC)",7 of 8
same,survivor count,"dose: 5.0 mg/kg/injection, schedule: Q04DX002 (ip), vehicle: suspension in saline",4 of 4
same,survivor count,"dose: 5.0 mg/kg/injection, schedule: Q04DX003 (ip), vehicle: saline with Tween-80",4 of 4
same,survivor count,"dose: 8.0 mg/kg/injection, schedule: Q01DX001 (ip), vehicle: other",8 of 8
same,survivor count,"dose: 8.0 mg/kg/injection, schedule: Q01DX001 (sc), vehicle: other",8 of 8
same,survivor count,"dose: 8.0 mg/kg/injection, schedule: Q01DX009 (ip), vehicle: other",8 of 8
same,survivor count,"dose: 8.0 mg/kg/injection, schedule: Q01DX009 (oral), vehicle: Klucel (hydroxypropylcellulose) (HPC)",8 of 8
same,survivor count,"dose: 8.0 mg/kg/injection, schedule: Q01DX009 (sc), vehicle: other",8 of 8
same,survivor count,"dose: 8.0 mg/kg/injection, schedule: Q03HX008 (ip), vehicle: other",1 of 8
same,survivor count,"dose: 8.0 mg/kg/injection, schedule: Q03HX008 (oral), vehicle: Klucel (hydroxypropylcellulose) (HPC)",8 of 8
same,survivor count,"dose: 8.0 mg/kg/injection, schedule: Q03HX016 (ip), vehicle: other",1 of 8
same,survivor count,"dose: 8.0 mg/kg/injection, schedule: Q03HX016 (oral), vehicle: Klucel (hydroxypropylcellulose) (HPC)",8 of 8
same,survivor count,"dose: 8.0 mg/kg/injection, schedule: Q03HX024 (ip), vehicle: other",2 of 8
same,survivor count,"dose: 8.0 mg/kg/injection, schedule: Q03HX024 (oral), vehicle: Klucel (hydroxypropylcellulose) (HPC)",7 of 8
same,survivor count,"dose: 8.0 mg/kg/injection, schedule: Q04DX003 (ip), vehicle: other",8 of 8
same,survivor count,"dose: 8.0 mg/kg/injection, schedule: Q04DX003 (ip), vehicle: saline",4 of 4
same,survivor count,"dose: 8.0 mg/kg/injection, schedule: Q08DX002 (ip), vehicle: other",8 of 8
same,survivor count,"dose: 10.0 mg/kg/injection, schedule: Q04DX002 (ip), vehicle: suspension in saline",4 of 4
same,survivor count,"dose: 10.0 mg/kg/injection, schedule: Q04DX003 (ip), vehicle: saline with Tween-80",4 of 4
same,survivor count,"dose: 16.0 mg/kg/injection, schedule: Q01DX001 (ip), vehicle: other",8 of 8
same,survivor count,"dose: 16.0 mg/kg/injection, schedule: Q01DX001 (sc), vehicle: other",8 of 8
same,survivor count,"dose: 16.0 mg/kg/injection, schedule: Q01DX009 (ip), vehicle: other",8 of 8
same,survivor count,"dose: 16.0 mg/kg/injection, schedule: Q01DX009 (oral), vehicle: Klucel (hydroxypropylcellulose) (HPC)",7 of 8
same,survivor count,"dose: 16.0 mg/kg/injection, schedule: Q01DX009 (sc), vehicle: other",8 of 8
same,survivor count,"dose: 16.0 mg/kg/injection, schedule: Q03HX008 (ip), vehicle: other",2 of 8
same,survivor count,"dose: 16.0 mg/kg/injection, schedule: Q03HX008 (oral), vehicle: Klucel (hydroxypropylcellulose) (HPC)",7 of 8
same,survivor count,"dose: 16.0 mg/kg/injection, schedule: Q03HX016 (ip), vehicle: other",2 of 8
same,survivor count,"dose: 16.0 mg/kg/injection, schedule: Q03HX016 (oral), vehicle: Klucel (hydroxypropylcellulose) (HPC)",7 of 8
same,survivor count,"dose: 16.0 mg/kg/injection, schedule: Q03HX024 (ip), vehicle: other",0 of 8
same,survivor count,"dose: 16.0 mg/kg/injection, schedule: Q03HX024 (oral), vehicle: Klucel (hydroxypropylcellulose) (HPC)",8 of 8
same,survivor count,"dose: 16.0 mg/kg/injection, schedule: Q04DX003 (ip), vehicle: other",8 of 8
same,survivor count,"dose: 16.0 mg/kg/injection, schedule: Q04DX003 (ip), vehicle: saline",4 of 4
same,survivor count,"dose: 16.0 mg/kg/injection, schedule: Q08DX002 (ip), vehicle: other",8 of 8
same,survivor count,"dose: 20.0 mg/kg/injection, schedule: Q04DX002 (ip), vehicle: suspension in saline",4 of 4
same,survivor count,"dose: 20.0 mg/kg/injection, schedule: Q04DX003 (ip), vehicle: saline with Tween-80",4 of 4
same,survivor count,"dose: 32.0 mg/kg/injection, schedule: Q01DX001 (ip), vehicle: other",8 of 8
same,survivor count,"dose: 32.0 mg/kg/injection, schedule: Q01DX001 (oral), vehicle: Klucel (hydroxypropylcellulose) (HPC)",8 of 8
same,survivor count,"dose: 32.0 mg/kg/injection, schedule: Q01DX001 (sc), vehicle: other",8 of 8
same,survivor count,"dose: 32.0 mg/kg/injection, schedule: Q01DX009 (ip), vehicle: other",7 of 8
same,survivor count,"dose: 32.0 mg/kg/injection, schedule: Q01DX009 (oral), vehicle: Klucel (hydroxypropylcellulose) (HPC)",8 of 8
same,survivor count,"dose: 32.0 mg/kg/injection, schedule: Q01DX009 (sc), vehicle: other",7 of 8
same,survivor count,"dose: 32.0 mg/kg/injection, schedule: Q03HX003 (oral), vehicle: Klucel (hydroxypropylcellulose) (HPC)",8 of 8
same,survivor count,"dose: 32.0 mg/kg/injection, schedule: Q03HX008 (ip), vehicle: other",1 of 8
same,survivor count,"dose: 32.0 mg/kg/injection, schedule: Q03HX008 (oral), vehicle: Klucel (hydroxypropylcellulose) (HPC)",7 of 8
same,survivor count,"dose: 32.0 mg/kg/injection, schedule: Q03HX016 (oral), vehicle: Klucel (hydroxypropylcellulose) (HPC)",8 of 8
same,survivor count,"dose: 32.0 mg/kg/injection, schedule: Q03HX024 (oral), vehicle: Klucel (hydroxypropylcellulose) (HPC)",8 of 8
same,survivor count,"dose: 32.0 mg/kg/injection, schedule: Q04DX003 (ip), vehicle: other",8 of 8
same,survivor count,"dose: 32.0 mg/kg/injection, schedule: Q04DX003 (ip), vehicle: saline",0 of 2 and 4 of 4
same,survivor count,"dose: 32.0 mg/kg/injection, schedule: Q08DX002 (ip), vehicle: other",8 of 8
same,survivor count,"dose: 32.0 mg/kg/injection, schedule: Q08DX002 (oral), vehicle: Klucel (hydroxypropylcellulose) (HPC)",8 of 8
same,survivor count,"dose: 40.0 mg/kg/injection, schedule: Q04DX002 (ip), vehicle: suspension in saline",4 of 4
same,survivor count,"dose: 40.0 mg/kg/injection, schedule: Q04DX003 (ip), vehicle: saline with Tween-80",4 of 4
same,survivor count,"dose: 64.0 mg/kg/injection, schedule: Q01DX001 (ip), vehicle: other",8 of 8
same,survivor count,"dose: 64.0 mg/kg/injection, schedule: Q01DX001 (oral), vehicle: Klucel (hydroxypropylcellulose) (HPC)",8 of 8
same,survivor count,"dose: 64.0 mg/kg/injection, schedule: Q01DX001 (sc), vehicle: other",8 of 8
same,survivor count,"dose: 64.0 mg/kg/injection, schedule: Q01DX009 (oral), vehicle: Klucel (hydroxypropylcellulose) (HPC)",8 of 8
same,survivor count,"dose: 64.0 mg/kg/injection, schedule: Q01DX009 (oral), vehicle: other",8 of 8
same,survivor count,"dose: 64.0 mg/kg/injection, schedule: Q03HX003 (oral), vehicle: Klucel (hydroxypropylcellulose) (HPC)",8 of 8
same,survivor count,"dose: 64.0 mg/kg/injection, schedule: Q03HX008 (oral), vehicle: Klucel (hydroxypropylcellulose) (HPC)",8 of 8
same,survivor count,"dose: 64.0 mg/kg/injection, schedule: Q03HX016 (oral), vehicle: Klucel (hydroxypropylcellulose) (HPC)",7 of 8
same,survivor count,"dose: 64.0 mg/kg/injection, schedule: Q03HX024 (oral), vehicle: Klucel (hydroxypropylcellulose) (HPC)",6 of 8
same,survivor count,"dose: 64.0 mg/kg/injection, schedule: Q04DX003 (ip), vehicle: other",8 of 8
same,survivor count,"dose: 64.0 mg/kg/injection, schedule: Q04DX003 (ip), vehicle: saline",4 of 4
same,survivor count,"dose: 64.0 mg/kg/injection, schedule: Q08DX002 (ip), vehicle: other",8 of 8
same,survivor count,"dose: 64.0 mg/kg/injection, schedule: Q08DX002 (oral), vehicle: Klucel (hydroxypropylcellulose) (HPC)",8 of 8
same,survivor count,"dose: 128.0 mg/kg/injection, schedule: Q01DX001 (ip), vehicle: other",7 of 8
same,survivor count,"dose: 128.0 mg/kg/injection, schedule: Q01DX001 (oral), vehicle: Klucel (hydroxypropylcellulose) (HPC)",8 of 8
same,survivor count,"dose: 128.0 mg/kg/injection, schedule: Q01DX001 (oral), vehicle: other",8 of 8
same,survivor count,"dose: 128.0 mg/kg/injection, schedule: Q01DX001 (sc), vehicle: other",8 of 8
same,survivor count,"dose: 128.0 mg/kg/injection, schedule: Q01DX009 (oral), vehicle: Klucel (hydroxypropylcellulose) (HPC)",8 of 8
same,survivor count,"dose: 128.0 mg/kg/injection, schedule: Q01DX009 (oral), vehicle: other",8 of 8
same,survivor count,"dose: 128.0 mg/kg/injection, schedule: Q03HX003 (oral), vehicle: Klucel (hydroxypropylcellulose) (HPC)",8 of 8
same,survivor count,"dose: 128.0 mg/kg/injection, schedule: Q03HX008 (oral), vehicle: Klucel (hydroxypropylcellulose) (HPC)",8 of 8
same,survivor count,"dose: 128.0 mg/kg/injection, schedule: Q03HX016 (oral), vehicle: Klucel (hydroxypropylcellulose) (HPC)",7 of 8
same,survivor count,"dose: 128.0 mg/kg/injection, schedule: Q03HX024 (oral), vehicle: Klucel (hydroxypropylcellulose) (HPC)",8 of 8
same,survivor count,"dose: 128.0 mg/kg/injection, schedule: Q04DX003 (ip), vehicle: other",6 of 8
same,survivor count,"dose: 128.0 mg/kg/injection, schedule: Q08DX002 (ip), vehicle: other",8 of 8
same,survivor count,"dose: 128.0 mg/kg/injection, schedule: Q08DX002 (oral), vehicle: Klucel (hydroxypropylcellulose) (HPC)",8 of 8
same,survivor count,"dose: 256.0 mg/kg/injection, schedule: Q01DX001 (ip), vehicle: other",2 of 8
same,survivor count,"dose: 256.0 mg/kg/injection, schedule: Q01DX001 (oral), vehicle: Klucel (hydroxypropylcellulose) (HPC)",8 of 8
same,survivor count,"dose: 256.0 mg/kg/injection, schedule: Q01DX001 (oral), vehicle: other",8 of 8
same,survivor count,"dose: 256.0 mg/kg/injection, schedule: Q01DX001 (sc), vehicle: other",6 of 8
same,survivor count,"dose: 256.0 mg/kg/injection, schedule: Q01DX009 (oral), vehicle: other",8 of 8
same,survivor count,"dose: 256.0 mg/kg/injection, schedule: Q03HX003 (oral), vehicle: Klucel (hydroxypropylcellulose) (HPC)",8 of 8
same,survivor count,"dose: 256.0 mg/kg/injection, schedule: Q08DX002 (oral), vehicle: Klucel (hydroxypropylcellulose) (HPC)",8 of 8
same,survivor count,"dose: 512.0 mg/kg/injection, schedule: Q01DX001 (oral), vehicle: Klucel (hydroxypropylcellulose) (HPC)",8 of 8
same,survivor count,"dose: 512.0 mg/kg/injection, schedule: Q01DX001 (oral), vehicle: other",8 of 8
same,survivor count,"dose: 512.0 mg/kg/injection, schedule: Q01DX009 (oral), vehicle: other",8 of 8
same,survivor count,"dose: 512.0 mg/kg/injection, schedule: Q03HX003 (oral), vehicle: Klucel (hydroxypropylcellulose) (HPC)",8 of 8
same,survivor count,"dose: 512.0 mg/kg/injection, schedule: Q08DX002 (oral), vehicle: Klucel (hydroxypropylcellulose) (HPC)",8 of 8
same,survivor count,"dose: 1024.0 mg/kg/injection, schedule: Q01DX001 (oral), vehicle: Klucel (hydroxypropylcellulose) (HPC)",8 of 8
same,survivor count,"dose: 1024.0 mg/kg/injection, schedule: Q01DX001 (oral), vehicle: other",8 of 8
same,survivor count,"dose: 1024.0 mg/kg/injection, schedule: Q01DX009 (oral), vehicle: other",8 of 8
same,survivor count,"dose: 1024.0 mg/kg/injection, schedule: Q03HX003 (oral), vehicle: Klucel (hydroxypropylcellulose) (HPC)",8 of 8
same,survivor count,"dose: 1024.0 mg/kg/injection, schedule: Q08DX002 (oral), vehicle: Klucel (hydroxypropylcellulose) (HPC)",8 of 8
